{"sequences": {"note": "Sequences of proteins named here, by UniProt entry; tags and fusion partners are left off. A change or cut given only in a name is not applied to a line headed by its entry.", "UniProt Q02223": "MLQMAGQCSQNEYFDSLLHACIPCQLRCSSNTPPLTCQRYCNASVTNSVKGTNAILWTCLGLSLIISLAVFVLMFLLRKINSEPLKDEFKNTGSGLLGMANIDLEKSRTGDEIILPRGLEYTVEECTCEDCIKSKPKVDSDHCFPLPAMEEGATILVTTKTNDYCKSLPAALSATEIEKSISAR"}, "source": "patent US20250042970A1", "note": "No constants are given. Whether binding was seen depends on the method and setting. Some entries that bind do so weakly or less than the wild type."}
{"target": "FLAG-tagged cynomolgous APRIL (cynomolgus monkey)", "assay": "SPR vs BAv8-10"}
{"substance": "BAv13-Ig (from UniProt Q02223 5-54) (Fc fusion)", "binding": "binds"}
{"substance": "BAv14-Ig (from UniProt Q02223 5-54) (Fc fusion)", "binding": "binds"}
{"substance": "BAv15-Ig (from UniProt Q02223 5-54) (Fc fusion)", "binding": "binds"}
{"substance": "BAv16-Ig (from UniProt Q02223 5-54) (Fc fusion)", "binding": "binds"}
{"substance": "BAv17-Ig (from UniProt Q02223 5-54) (Fc fusion)", "binding": "binds"}
{"substance": "BAv18-Ig (from UniProt Q02223 5-54) (Fc fusion)", "binding": "binds"}
{"substance": "BAv19-Ig (from UniProt Q02223 5-54) (Fc fusion)", "binding": "binds"}
{"substance": "BAv20-Ig (from UniProt Q02223 5-54) (Fc fusion)", "binding": "binds"}
{"substance": "BAv21-Ig (from UniProt Q02223 5-54) (Fc fusion)", "binding": "binds"}
{"substance": "BAv22-Ig (from UniProt Q02223 5-54) (Fc fusion)", "binding": "binds"}
{"substance": "BAv23-Ig (from UniProt Q02223 5-54) (Fc fusion)", "binding": "binds"}
{"substance": "BAv24-Ig (from UniProt Q02223 5-54) (Fc fusion)", "binding": "binds"}
{"substance": "BAv25-Ig (from UniProt Q02223 5-54) (Fc fusion)", "binding": "binds"}
{"substance": "BAv27-Ig (from UniProt Q02223 5-54) (Fc fusion)", "binding": "binds"}
{"substance": "BAv28-Ig (from UniProt Q02223 5-54) (Fc fusion)", "binding": "binds"}
{"substance": "BAv29-Ig (from UniProt Q02223 5-54) (Fc fusion)", "binding": "binds"}
{"substance": "BAv30-Ig (from UniProt Q02223 5-54) (Fc fusion)", "binding": "binds"}
{"substance": "BAv31-Ig (from UniProt Q02223 5-54) (Fc fusion)", "binding": "binds"}
{"substance": "BAv32-Ig (from UniProt Q02223 5-54) (Fc fusion)", "binding": "binds"}
{"substance": "BAv33-Ig (from UniProt Q02223 5-54) (Fc fusion)", "binding": "binds"}
{"substance": "BAv34-Ig (from UniProt Q02223 5-54) (Fc fusion)", "binding": "binds"}
{"substance": "BAv35-Ig (from UniProt Q02223 5-54) (Fc fusion)", "binding": "binds"}
{"substance": "BAv36-Ig (from UniProt Q02223 5-54) (Fc fusion)", "binding": "binds"}
{"substance": "BAv37-Ig (from UniProt Q02223 5-54) (Fc fusion)", "binding": "binds"}
{"substance": "BAv38-Ig (from UniProt Q02223 5-54) (Fc fusion)", "binding": "binds"}
{"substance": "BAv39-Ig (from UniProt Q02223 5-54) (Fc fusion)", "binding": "binds"}
{"substance": "BAv40-Ig (from UniProt Q02223 5-54) (Fc fusion)", "binding": "binds"}
{"substance": "BAv41-Ig (from UniProt Q02223 5-54) (Fc fusion)", "binding": "binds"}
{"substance": "BAv42-Ig (from UniProt Q02223 5-54) (Fc fusion)", "binding": "binds"}
{"substance": "BAv43-Ig (from UniProt Q02223 5-54) (Fc fusion)", "binding": "binds"}
{"substance": "BAv44-Ig (from UniProt Q02223 5-54) (Fc fusion)", "binding": "binds"}
{"substance": "BAv46-Ig (from UniProt Q02223 5-54) (Fc fusion)", "binding": "binds"}
{"substance": "BAv47-Ig (from UniProt Q02223 5-54) (Fc fusion)", "binding": "binds"}
{"substance": "BAv48-Ig (from UniProt Q02223 5-54) (Fc fusion)", "binding": "binds"}
{"substance": "BAv50-Ig (from UniProt Q02223 5-54) (Fc fusion)", "binding": "binds"}
{"substance": "BAv52-Ig (from UniProt Q02223 5-54) (Fc fusion)", "binding": "binds"}
{"substance": "BAv56-Ig (from UniProt Q02223 5-54) (Fc fusion)", "binding": "binds"}
{"substance": "BAv57-Ig (from UniProt Q02223 5-54) (Fc fusion)", "binding": "binds"}
{"substance": "BAv59-Ig (from UniProt Q02223 5-54) (Fc fusion)", "binding": "binds"}
{"substance": "BAv61-Ig (from UniProt Q02223 5-54) (Fc fusion)", "binding": "binds"}
{"substance": "BAv62-Ig (from UniProt Q02223 5-54) (Fc fusion)", "binding": "binds"}
{"substance": "BAv65-Ig (from UniProt Q02223 5-54) (Fc fusion)", "binding": "binds"}
{"substance": "BAv73-Ig (from UniProt Q02223 5-54) (Fc fusion)", "binding": "binds"}
{"substance": "BAv80-Ig (from UniProt Q02223 5-54) (Fc fusion)", "binding": "binds"}
{"substance": "BAv84-Ig (from UniProt Q02223 5-54) (Fc fusion)", "binding": "binds"}
{"substance": "BAv86-Ig (from UniProt Q02223 5-54) (Fc fusion)", "binding": "binds"}
{"substance": "BAv87-Ig (from UniProt Q02223 5-54) (Fc fusion)", "binding": "binds"}
{"substance": "BAv88-Ig (from UniProt Q02223 5-54) (Fc fusion)", "binding": "binds"}
